Some of these results come from one statement about several compounds together. Where a SMILES comes first, the peptide text is derived from it. The star is where a group is joined. Cbz = O=C(OCc1ccccc1)*; OtBu = CC(C)(C)O*
Columns and labels:
calpain = settings: general statement on selectivity as proteasome inhibiting agent; cited from earlier work
proteasome = target: T1, proteasome (Homo sapiens, UniProt P28074); test: Proteasome activity in nuclear extract solution of HT29 cells with fluorescent peptide substrate; type: biochemical; settings: Z-LLL-MCA as the substrate; PSI, MG115, MG132 2.5 µm; E64 5 and 10 µm; ZLLal 2.5 and 5 µm; extracts of control, glucose starvation and hypoxia cells; FIG. 10
T1 construct: endogenous in cells; host or cells: HT29 human colon adenocarcinoma cells, unpurified nuclear extract (control, glucose-starved or hypoxic cells)
T1 sequence (P28074 60-263): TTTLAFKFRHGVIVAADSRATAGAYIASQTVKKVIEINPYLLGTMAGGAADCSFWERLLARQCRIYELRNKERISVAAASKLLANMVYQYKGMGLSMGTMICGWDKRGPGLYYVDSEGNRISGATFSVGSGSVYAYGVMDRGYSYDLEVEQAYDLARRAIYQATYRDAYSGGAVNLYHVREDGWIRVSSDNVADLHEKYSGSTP

Compound	inhibitory activity on calpain (calpain)	suppression of proteasome activity in the nuclear extract solution (proteasome)
CC[C@H](C)[C@H](NC(=O)OCc1ccccc1)C(=O)N[C@@H](CCC(=O)OC(C)(C)C)C(=O)N[C@@H](C)C(=O)N[C@H](C=O)CC(C)C [PSI, carbobenzoxy-L-Isoleucyl-γ-t-Butyl-L-Glutamyl-L-Alany 1-L-Leucinal] (Cbz-IE(OtBu)AL-aldehyde)	show inhibitory activity on other enzymes such as calpain	–
CC(C)C[C@@H](C=O)NC(=O)[C@H](CC(C)C)NC(=O)[C@H](CC(C)C)NC(=O)OCc1ccccc1 [MG132, carbobenzoxy-L-Leucyl-L-Leucyl-Leucinal] (Cbz-Leu-Leu-Leu-aldehyde)	show inhibitory activity on other enzymes such as calpain	suppress almost perfectly
